Laboratory results published in PMC12102395.
Read-outs that look alike come from different tables or passages of the source. Results are given in words; binding and its absence hold for the method and conditions named. Binding seen in cells or lysates may run through a third protein. Some binding calls cover weakened binding; strength is not graded here. For some assays here: Tags and fused reporters may be left off the sequences shown. Each block holds one molecule with its values, some of them ahead of it.

By UniProt entry, the sequences of proteins in these tests, tags left out. Residues count along the entry.
UniProt Q9NZQ7, residues 19-290: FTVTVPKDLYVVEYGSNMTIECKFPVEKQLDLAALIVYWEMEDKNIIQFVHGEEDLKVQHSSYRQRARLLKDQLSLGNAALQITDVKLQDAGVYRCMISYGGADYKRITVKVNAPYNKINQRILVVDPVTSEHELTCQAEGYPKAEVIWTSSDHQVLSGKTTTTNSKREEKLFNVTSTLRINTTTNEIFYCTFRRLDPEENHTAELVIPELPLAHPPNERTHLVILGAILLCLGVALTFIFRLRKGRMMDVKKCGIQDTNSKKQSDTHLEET
UniProt P19474: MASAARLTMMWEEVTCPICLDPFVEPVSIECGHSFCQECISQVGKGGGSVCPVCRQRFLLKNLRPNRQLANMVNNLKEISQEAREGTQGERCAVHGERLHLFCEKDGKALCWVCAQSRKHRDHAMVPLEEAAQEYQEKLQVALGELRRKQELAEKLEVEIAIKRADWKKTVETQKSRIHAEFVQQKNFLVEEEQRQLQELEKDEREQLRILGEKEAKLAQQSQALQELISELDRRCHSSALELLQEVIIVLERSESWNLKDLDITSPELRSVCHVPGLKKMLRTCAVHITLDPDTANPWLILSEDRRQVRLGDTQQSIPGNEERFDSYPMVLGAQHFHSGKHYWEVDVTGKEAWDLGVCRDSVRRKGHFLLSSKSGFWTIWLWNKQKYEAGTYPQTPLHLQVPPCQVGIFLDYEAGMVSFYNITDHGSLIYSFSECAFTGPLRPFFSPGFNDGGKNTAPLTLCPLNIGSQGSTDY

Experiments:
[1] = target: T1, NBR1 (endogenous) (human (endogenous in DU145 and PC-3)) (UniProt Q14596); test: co-IP; endogenous proteins in lysates of DU145 and/or PC-3 cells; IP lysis buffer with protease inhibitors, IgG or specific primary antibody plus protein A/G magnetic beads overnight at 4 °C, three washes, western blot
T1 sequence: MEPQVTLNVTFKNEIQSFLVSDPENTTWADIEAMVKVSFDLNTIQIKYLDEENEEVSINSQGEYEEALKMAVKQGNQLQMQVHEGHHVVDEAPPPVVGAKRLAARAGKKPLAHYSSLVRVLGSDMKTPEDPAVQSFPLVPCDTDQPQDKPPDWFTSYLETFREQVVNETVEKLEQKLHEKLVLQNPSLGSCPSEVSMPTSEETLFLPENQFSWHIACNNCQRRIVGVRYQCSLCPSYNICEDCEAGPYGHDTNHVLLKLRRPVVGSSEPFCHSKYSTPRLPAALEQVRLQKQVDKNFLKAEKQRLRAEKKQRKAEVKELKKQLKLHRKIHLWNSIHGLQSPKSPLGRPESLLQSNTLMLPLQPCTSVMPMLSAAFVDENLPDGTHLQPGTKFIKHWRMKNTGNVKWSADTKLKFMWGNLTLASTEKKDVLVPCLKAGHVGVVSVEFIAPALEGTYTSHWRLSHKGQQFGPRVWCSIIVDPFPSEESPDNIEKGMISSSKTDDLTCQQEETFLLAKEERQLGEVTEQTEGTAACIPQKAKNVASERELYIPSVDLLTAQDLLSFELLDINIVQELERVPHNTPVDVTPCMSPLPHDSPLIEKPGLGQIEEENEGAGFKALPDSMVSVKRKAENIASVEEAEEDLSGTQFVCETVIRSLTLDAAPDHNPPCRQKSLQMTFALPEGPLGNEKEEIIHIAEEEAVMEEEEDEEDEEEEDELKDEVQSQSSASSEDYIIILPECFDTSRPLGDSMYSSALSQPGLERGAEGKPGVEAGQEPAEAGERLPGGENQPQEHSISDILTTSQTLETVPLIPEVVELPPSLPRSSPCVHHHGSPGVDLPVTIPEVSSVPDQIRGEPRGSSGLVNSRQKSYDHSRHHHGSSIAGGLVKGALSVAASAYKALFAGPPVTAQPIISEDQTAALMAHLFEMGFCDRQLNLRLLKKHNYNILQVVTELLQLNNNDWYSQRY

[2] = target: T2, Myc-NBR1 (UniProt Q14596); test: co-IP; tagged proteins co-transfected into HEK-293T cells; IP lysis buffer with protease inhibitors, IgG or specific primary antibody plus protein A/G magnetic beads overnight at 4 °C, three washes, western blot
T2 sequence: T1 sequence

[3] = target: His-PD-L1 (UniProt Q9NZQ7); test: as above
[4] = target: T1, NBR1 (endogenous) (human (endogenous in DU145 and PC-3)); test: co-IP; endogenous proteins in lysates of DU145 and/or PC-3 cells; IP lysis buffer with protease inhibitors, IgG or specific primary antibody plus protein A/G magnetic beads overnight at 4 °C, three washes, western blot; remark: listed apart in the source
[5] = target: PD-L1 (endogenous) (human (endogenous in DU145 and PC-3)) (UniProt Q9NZQ7); test: as above

binding [1]: binds
Molecule: TRIM21 (from UniProt P19474 1-475) (enzyme)

binding [2]: binds
binding [3]: binds
B1: Flag-USP8 (enzyme, UniProt P40818 1-1118)
chain: MPAVASVPKELYLSSSLKDLNKKTEVKPEKISTKSYVHSALKIFKTAEECRLDRDEERAYVLYMKYVTVYNLIKKRPDFKQQQDYFHSILGPGNIKKAVEEAERLSESLKLRYEEAEVRKKLEEKDRQEEAQRLQQKRQETGREDGGTLAKGSLENVLDSKDKTQKSNGEKNEKCETKEKGAITAKELYTMMTDKNISLIIMDARRMQDYQDSCILHSLSVPEEAISPGVTASWIEAHLPDDSKDTWKKRGNVEYVVLLDWFSSAKDLQIGTTLRSLKDALFKWESKTVLRNEPLVLEGGYENWLLCYPQYTTNAKVTPPPRRQNEEVSISLDFTYPSLEESIPSKPAAQTPPASIEVDENIELISGQNERMGPLNISTPVEPVAASKSDVSPIIQPVPSIKNVPQIDRTKKPAVKLPEEHRIKSESTNHEQQSPQSGKVIPDRSTKPVVFSPTLMLTDEEKARIHAETALLMEKNKQEKELRERQQEEQKEKLRKEEQEQKAKKKQEAEENEITEKQQKAKEEMEKKESEQAKKEDKETSAKRGKEITGVKRQSKSEHETSDAKKSVEDRGKRCPTPEIQKKSTGDVPHTSVTGDSGSGKPFKIKGQPESGILRTGTFREDTDDTERNKAQREPLTRARSEEMGRIVPGLPSGWAKFLDPITGTFRYYHSPTNTVHMYPPEMAPSSAPPSTPPTHKAKPQIPAERDREPSKLKRSYSSPDITQAIQEEEKRKPTVTPTVNRENKPTCYPKAEISRLSASQIRNLNPVFGGSGPALTGLRNLGNTCYMNSILQCLCNAPHLADYFNRNCYQDDINRSNLLGHKGEVAEEFGIIMKALWTGQYRYISPKDFKITIGKINDQFAGYSQQDSQELLLFLMDGLHEDLNKADNRKRYKEENNDHLDDFKAAEHAWQKHKQLNESIIVALFQGQFKSTVQCLTCHKKSRTFEAFMYLSLPLASTSKCTLQDCLRLFSKEEKLTDNNRFYCSHCRARRDSLKKIEIWKLPPVLLVHLKRFSYDGRWKQKLQTSVDFPLENLDLSQYVIGPKNNLKKYNLFSVSNHYGGLDGGHYTAYCKNAARQRWFKFDDHEVSDISVSSVKSSAAYILFYTSLGPRVTDVAT

binding [4]: binds
binding [5]: binds
B2: USP8 (endogenous) (enzyme, UniProt P40818 1-1118)
chain: B1 chain
